# Measured data: PubChem BioAssay AID1259299 (Sanger Institute, 2017)
# Test: 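Kinases and colorectal mutated genes needed by colorectal cancer cells, with or without drugs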 (primary screen)
# Cell system: human CAR1 colorectal cancer cells
# Reagents: siRNA pool against human genes
# Challenge: anchor drug BYL719 1 µM, cetuximab 5 µg/ml or trametinib 10 nM, or DMSO vehicle alone; exposure length not given
# Measurement: 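Cell viability as fraction of non-targeting siRNA wells, mean of replicates, with robust z-score and a synergy score for each of three drugs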
# Reading the numbers: viability robust z-score, knock-down alone: higher = more viable cells
# Active means: 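Essential when viability robust z-score with knock-down alone (DMSO) is below -3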
# Calls: active = essential (knock-down alone); inactive = no change
# The deposit covers 794 reagents; shown is a part drawn at random. In the full data, 9 (1.1%) were called active. 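Calls rest on knock-down alone; synergy scores play no part in calls, and no gene passed the synergy cut.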 A number with no mark means an inactive call. Further read-outs or replicates are left out here. Reagent sequences are not shown. Not given: the amount of reagent, the time to read-out.
target,"viability robust z-score, knock-down alone"
PRKAR2B,-1.2
HASPIN (histone H3 associated protein kinase),0.789
MLKL (mixed lineage kinase domain like pseudokinase),-0.62
PRKCB (protein kinase C beta),-0.049
MAP3K4 (mitogen-activated protein kinase kinase kinase 4),0.789
CKS1B (CDC28 protein kinase regulatory subunit 1B),0.789
MAPK15 (mitogen-activated protein kinase 15),0.789
TGFBR3 (transforming growth factor beta receptor 3),0.789
MAP3K10 (mitogen-activated protein kinase kinase kinase 10),0.789
SRPK1 (SRSF protein kinase 1),-1.34
"ABL2 (ABL proto-oncogene 2, non-receptor tyrosine kinase)",0.476
OBSCN,0.789
DLG2 (discs large MAGUK scaffold protein 2),-0.146
RPS6KB1 (ribosomal protein S6 kinase B1),0.789
CSNK1G2 (casein kinase 1 gamma 2),0.789
DGKI (diacylglycerol kinase iota),0.789
EFNB3 (ephrin B3),0.557
COASY (Coenzyme A synthase),-1.7
PHKG1 (phosphorylase kinase catalytic subunit gamma 1),0.717
ULK3 (unc-51 like kinase 3),0.789
CHD9 (chromodomain helicase DNA binding protein 9),-1.85
LMBR1 (limb development membrane protein 1),0.372
TESK1 (testis associated actin remodelling kinase 1),0.789
PAK1 (p21 (RAC1) activated kinase 1),-2.03
"PRKDC (protein kinase, DNA-activated, catalytic subunit)",-1.88
RSKR (ribosomal protein S6 kinase related),0.789
ATP23,-0.0731
FBXW7 (F-box and WD repeat domain containing 7),0.789
MED24 (mediator complex subunit 24),0.789
GAK (cyclin G associated kinase),0.789
GALK1 (galactokinase 1),-2.5
CDKN1C (cyclin dependent kinase inhibitor 1C),0.637
SRPK2 (SRSF protein kinase 2),0.789
"YES1 (YES proto-oncogene 1, Src family tyrosine kinase)",0.789
SOS2 (SOS Ras/Rho guanine nucleotide exchange factor 2),0.789
RPS6KB2 (ribosomal protein S6 kinase B2),0.789
HK3 (hexokinase 3),-1.51
PIK3C3 (phosphatidylinositol 3-kinase catalytic subunit type 3),-0.0653
DIS3 (DIS3 exosome endoribonuclease and 3'-5' exoribonuclease),0.286
PDIK1L (PDLIM1 interacting kinase 1 like),0.789
BRD3 (bromodomain containing 3),0.789
WIPF1 (WAS/WASL interacting protein family member 1),-1.33
RUNX1 (RUNX family transcription factor 1),-2.58
ERBB2 (erb-b2 receptor tyrosine kinase 2),0.789
TSSK6 (testis specific serine kinase 6),0.428
CDK5R2 (cyclin dependent kinase 5 regulatory subunit 2),0.789
HIPK2 (homeodomain interacting protein kinase 2),0.219
KDR (kinase insert domain receptor),-1.56
EPHB1 (EPH receptor B1),0.579
PRKAB2 (protein kinase AMP-activated non-catalytic subunit beta 2),-0.267

5 consecutive records already listed, for reference:
target,"viability robust z-score, knock-down alone"
DGKI (diacylglycerol kinase iota),0.789
EFNB3 (ephrin B3),0.557
COASY (Coenzyme A synthase),-1.7
PHKG1 (phosphorylase kinase catalytic subunit gamma 1),0.717
ULK3 (unc-51 like kinase 3),0.789
